# Results published in paper PMC8384837.
# Positions count from the first letter of the chain named. Some of the results follow.
# Columns and labels:
# Details in all cases: yeast three-hybrid, YBZ-1, SC-Leu-His + 0.5 mM 3-AT, 4 days
# [1] = target: T1, PUM1 PUF domain R5-DHS C1007D + R1008H + Q1011S (Homo sapiens) (UniProt Q14671)
# T1 sequence: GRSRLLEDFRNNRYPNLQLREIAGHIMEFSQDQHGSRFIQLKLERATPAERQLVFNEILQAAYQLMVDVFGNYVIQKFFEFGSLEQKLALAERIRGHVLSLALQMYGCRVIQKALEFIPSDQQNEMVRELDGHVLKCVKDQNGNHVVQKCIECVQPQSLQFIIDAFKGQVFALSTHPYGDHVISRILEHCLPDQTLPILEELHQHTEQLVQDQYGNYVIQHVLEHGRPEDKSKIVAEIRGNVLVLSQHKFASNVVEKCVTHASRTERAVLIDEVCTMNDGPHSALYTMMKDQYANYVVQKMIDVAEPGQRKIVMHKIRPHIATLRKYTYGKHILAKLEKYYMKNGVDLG
# [2] = target: T2, PUM1 PUF domain R5-DLR C1007D + R1008L + Q1011R (Homo sapiens) (UniProt Q14671)
# T2 sequence: T1 sequence with H181L, S184R
# [3] = target: T3, PUM1 PUF domain R5-EKC C1007E + R1008K + Q1011C (Homo sapiens) (UniProt Q14671)
# T3 sequence: T1 sequence with D180E, H181K, S184C
# [4] = target: T4, PUM1 PUF domain R5-GTE C1007G + R1008T + Q1011E (Homo sapiens) (UniProt Q14671)
# T4 sequence: T1 sequence with D180G, H181T, S184E
# [5] = target: T5, PUM1 PUF domain R5-KTC C1007K + R1008T + Q1011C (Homo sapiens) (UniProt Q14671)
# T5 sequence: T1 sequence with D180K, H181T, S184C
# [6] = target: T6, PUM1 PUF domain R5-KTS C1007K + R1008T + Q1011S (Homo sapiens) (UniProt Q14671)
# T6 sequence: T1 sequence with D180K, H181T
# [7] = target: T7, PUM1 PUF domain R5-NGR C1007N + R1008G + Q1011R (Homo sapiens) (UniProt Q14671)
# T7 sequence: T1 sequence with D180N, H181G, S184R
# [8] = target: T8, PUM1 PUF domain R5-NSD C1007N + R1008S + Q1011D (Homo sapiens) (UniProt Q14671)
# T8 sequence: T1 sequence with D180N, H181S, S184D
# [9] = target: T9, PUM1 PUF domain R5-RGE C1007R + R1008G + Q1011E (Homo sapiens) (UniProt Q14671)
# T9 sequence: T1 sequence with D180R, H181G, S184E
# [10] = target: T10, PUM1 PUF domain R5-RGS C1007R + R1008G + Q1011S (Homo sapiens) (UniProt Q14671)
# T10 sequence: T1 sequence with D180R, H181G
# [11] = target: T11, PUM1 PUF domain R5-RGV C1007R + R1008G + Q1011V (Homo sapiens) (UniProt Q14671)
# T11 sequence: T1 sequence with D180R, H181G, S184V
# [12] = target: T12, PUM1 PUF domain R5-RMG C1007R + R1008M + Q1011G (Homo sapiens) (UniProt Q14671)
# T12 sequence: T1 sequence with D180R, H181M, S184G
# [13] = target: T13, PUM1 PUF domain R5-RQH C1007R + R1008Q + Q1011H (Homo sapiens) (UniProt Q14671)
# T13 sequence: T1 sequence with D180R, H181Q, S184H
# [14] = target: T14, PUM1 PUF domain R5-SAT C1007S + R1008A + Q1011T (Homo sapiens) (UniProt Q14671)
# T14 sequence: T1 sequence with D180S, H181A, S184T
# [15] = target: T15, PUM1 PUF domain R5-SGK C1007S + R1008G + Q1011K (Homo sapiens) (UniProt Q14671)
# T15 sequence: T1 sequence with D180S, H181G, S184K
# [16] = target: T16, PUM1 PUF domain R5-SVG C1007S + R1008V + Q1011G (Homo sapiens) (UniProt Q14671)
# T16 sequence: T1 sequence with D180S, H181V, S184G
# [17] = target: T17, PUM1 PUF domain R5-TGR C1007T + R1008G + Q1011R (Homo sapiens) (UniProt Q14671)
# T17 sequence: T1 sequence with D180T, H181G, S184R
# [18] = target: T18, PUM1 PUF domain R5-WHL C1007W + R1008H + Q1011L (Homo sapiens) (UniProt Q14671)
# T18 sequence: T1 sequence with D180W, S184L
# [19] = target: T19, PUM1 PUF domain R6-EWL N1043E + Y1044W + Q1047L (Homo sapiens) (UniProt Q14671)
# T19 sequence: T1 sequence with D180C, H181R, S184Q, N216E, Y217W, Q220L
# [20] = target: T20, PUM1 PUF domain R6-TWA N1043T + Y1044W + Q1047A (Homo sapiens) (UniProt Q14671)
# T20 sequence: T1 sequence with D180C, H181R, S184Q, N216T, Y217W, Q220A
sequence,measurement,setting,value
GGCUAGAACUAGUGGAUCCCCCGGCGCCCGGCGGCUCGAGCCCGGGUAAGUGUAAAUAGUCUGCAUGCCGCCGGGCGCCAUGCCUGCAGGUCGACUCUAGAAAACAUG,binding signal (log2 enrichment (interaction score)),[1],-1.79
same,binding signal (log2 enrichment (interaction score)),[2],-3.37
same,binding signal (log2 enrichment (interaction score)),[3],-2.38
same,binding signal (log2 enrichment (interaction score)),[4],-2.33
same,binding signal (log2 enrichment (interaction score)),[5],-1.88
same,binding signal (log2 enrichment (interaction score)),[6],-3.49
same,binding signal (log2 enrichment (interaction score)),[7],-1.74
same,binding signal (log2 enrichment (interaction score)),[8],-2.08
same,binding signal (log2 enrichment (interaction score)),[9],-4.36
same,binding signal (log2 enrichment (interaction score)),[10],-1.92
same,binding signal (log2 enrichment (interaction score)),[11],-2.04
same,binding signal (log2 enrichment (interaction score)),[12],-1.91
same,binding signal (log2 enrichment (interaction score)),[13],-2.73
same,binding signal (log2 enrichment (interaction score)),[14],-3.88
same,binding signal (log2 enrichment (interaction score)),[15],-2.21
same,binding signal (log2 enrichment (interaction score)),[16],-2.03
same,binding signal (log2 enrichment (interaction score)),[17],-1.84
same,binding signal (log2 enrichment (interaction score)),[18],-3.03
same,binding signal (log2 enrichment (interaction score)),[19],0.88
same,binding signal (log2 enrichment (interaction score)),[20],1.14

# A different layout for part of the listing above.
sequence	measurement	setting	value
GGCUAGAACUAGUGGAUCCCCCGGCGCCCGGCGGCUCGAGCCCGGGUAAGUGUAAAUAGUCUGCAUGCCGCCGGGCGCCAUGCCUGCAGGUCGACUCUAGAAAACAUG	binding signal (log2 enrichment (interaction score))	[11]	-2.04
same	binding signal (log2 enrichment (interaction score))	[12]	-1.91
